Data as given in paper doi:10.1101/2021.09.09.459568.
Results are given in words; binding and its absence hold for the method and conditions named. In cells and extracts the contact can be indirect. Some results given as binding are weak or reduced against the parent protein; the word gives no strength. One block for each substance: values may come before it.

Amino acid sequences for entries named in this document (tags omitted). Residues count along the entry.
UniProt Q80U70: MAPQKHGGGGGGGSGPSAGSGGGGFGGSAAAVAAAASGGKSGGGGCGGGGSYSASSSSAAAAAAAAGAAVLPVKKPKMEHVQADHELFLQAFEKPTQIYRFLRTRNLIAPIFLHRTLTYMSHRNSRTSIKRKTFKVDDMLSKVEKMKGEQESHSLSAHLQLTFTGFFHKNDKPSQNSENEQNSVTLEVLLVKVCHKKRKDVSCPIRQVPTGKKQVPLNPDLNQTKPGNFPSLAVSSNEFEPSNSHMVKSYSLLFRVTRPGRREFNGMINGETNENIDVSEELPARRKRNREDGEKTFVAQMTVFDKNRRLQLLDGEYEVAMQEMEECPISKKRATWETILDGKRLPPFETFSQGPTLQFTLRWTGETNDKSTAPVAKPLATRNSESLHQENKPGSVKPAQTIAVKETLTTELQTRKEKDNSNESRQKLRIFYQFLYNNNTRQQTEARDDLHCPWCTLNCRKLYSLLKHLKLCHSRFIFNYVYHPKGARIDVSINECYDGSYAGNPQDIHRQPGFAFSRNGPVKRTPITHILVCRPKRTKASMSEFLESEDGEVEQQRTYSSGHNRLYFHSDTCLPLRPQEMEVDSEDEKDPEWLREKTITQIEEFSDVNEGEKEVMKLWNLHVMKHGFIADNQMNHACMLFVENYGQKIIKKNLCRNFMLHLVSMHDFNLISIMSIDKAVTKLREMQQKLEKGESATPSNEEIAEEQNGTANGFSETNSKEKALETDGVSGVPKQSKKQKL
UniProt O09106: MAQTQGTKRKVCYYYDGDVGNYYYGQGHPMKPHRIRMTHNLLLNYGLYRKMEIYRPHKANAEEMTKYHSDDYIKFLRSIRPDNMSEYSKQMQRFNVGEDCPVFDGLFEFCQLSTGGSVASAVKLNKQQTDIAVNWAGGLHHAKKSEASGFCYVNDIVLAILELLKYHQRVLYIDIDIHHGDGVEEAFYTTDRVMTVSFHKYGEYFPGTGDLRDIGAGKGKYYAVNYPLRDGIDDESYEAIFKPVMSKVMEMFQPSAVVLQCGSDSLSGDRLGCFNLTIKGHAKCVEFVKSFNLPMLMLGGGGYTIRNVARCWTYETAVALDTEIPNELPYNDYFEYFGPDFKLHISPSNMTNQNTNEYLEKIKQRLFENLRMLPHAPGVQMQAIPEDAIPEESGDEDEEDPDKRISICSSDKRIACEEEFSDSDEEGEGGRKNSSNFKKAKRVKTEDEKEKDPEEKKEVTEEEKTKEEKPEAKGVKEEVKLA
UniProt Q60972, residues 1-126: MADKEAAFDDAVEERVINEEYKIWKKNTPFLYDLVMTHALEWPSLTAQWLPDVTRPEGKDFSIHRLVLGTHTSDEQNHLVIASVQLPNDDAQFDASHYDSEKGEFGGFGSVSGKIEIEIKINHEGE
UniProt Q921E6: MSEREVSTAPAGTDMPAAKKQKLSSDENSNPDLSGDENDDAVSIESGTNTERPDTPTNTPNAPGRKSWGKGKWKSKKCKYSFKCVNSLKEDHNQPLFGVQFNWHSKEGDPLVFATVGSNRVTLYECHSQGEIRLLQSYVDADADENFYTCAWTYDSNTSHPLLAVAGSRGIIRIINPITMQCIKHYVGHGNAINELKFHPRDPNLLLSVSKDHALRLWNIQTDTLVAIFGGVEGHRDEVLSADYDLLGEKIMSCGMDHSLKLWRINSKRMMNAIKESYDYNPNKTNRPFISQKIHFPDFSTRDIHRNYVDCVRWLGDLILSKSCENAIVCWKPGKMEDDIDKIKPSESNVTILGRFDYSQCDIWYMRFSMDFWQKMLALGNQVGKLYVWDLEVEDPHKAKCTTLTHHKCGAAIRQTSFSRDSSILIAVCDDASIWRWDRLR
UniProt Q8K4B0: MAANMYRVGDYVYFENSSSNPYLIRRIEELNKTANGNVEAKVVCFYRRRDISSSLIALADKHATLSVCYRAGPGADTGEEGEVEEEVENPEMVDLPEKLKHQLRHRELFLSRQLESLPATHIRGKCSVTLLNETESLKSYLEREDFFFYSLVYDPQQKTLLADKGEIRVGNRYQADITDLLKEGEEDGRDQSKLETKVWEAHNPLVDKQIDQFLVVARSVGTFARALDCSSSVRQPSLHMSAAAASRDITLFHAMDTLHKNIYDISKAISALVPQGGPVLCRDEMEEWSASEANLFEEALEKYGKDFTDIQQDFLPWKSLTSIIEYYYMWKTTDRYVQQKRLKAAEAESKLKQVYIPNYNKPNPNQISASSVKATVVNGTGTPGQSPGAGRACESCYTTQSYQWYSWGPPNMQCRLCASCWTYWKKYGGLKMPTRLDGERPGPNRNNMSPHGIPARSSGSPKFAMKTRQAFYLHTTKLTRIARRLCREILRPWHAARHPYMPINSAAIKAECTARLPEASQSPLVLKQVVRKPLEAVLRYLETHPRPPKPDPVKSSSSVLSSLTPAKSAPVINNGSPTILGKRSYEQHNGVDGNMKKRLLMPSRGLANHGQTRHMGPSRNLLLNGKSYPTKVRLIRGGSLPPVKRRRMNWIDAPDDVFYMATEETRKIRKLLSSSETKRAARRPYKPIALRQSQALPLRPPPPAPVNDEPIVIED

Experiments:
Experiment in all cases: co-IP
[1] = biological target: SUZ12 (partner in the mapping co-IP of Figure 2B) (UniProt Q80U70)
[2] = biological target: SUZ12 (endogenous in mouse ESCs) (mouse (endogenous in E14 ESCs)) (UniProt Q80U70)
[3] = biological target: HDAC1 (endogenous in mouse ESCs) (mouse (endogenous in E14 ESCs)) (UniProt O09106)

binding [1]: binds
Substance: RBBP4 most N-terminal segment (1-126 aa) (from UniProt Q60972 1-126) (domain or fragment)

binding [2]: binds
Substance: EED (endogenous in mouse ESCs) (from UniProt Q921E6 1-441)

binding [3]: binds
Substance: MTA1 (endogenous in mouse ESCs) (from UniProt Q8K4B0 1-715)
